In this assay the target is BCMA (CD269)-human Fc protein expressed in transfected 293 cells (human) (UniProt Q02223). Briefly: immunostaining of 293 cells transfected with BCMA (CD269)-human Fc.

By UniProt entry, the sequences of proteins in these tests, tags left out. Where a name states a change or a piece, a line headed by the entry shows the natural chain unless it says otherwise.
UniProt Q02223: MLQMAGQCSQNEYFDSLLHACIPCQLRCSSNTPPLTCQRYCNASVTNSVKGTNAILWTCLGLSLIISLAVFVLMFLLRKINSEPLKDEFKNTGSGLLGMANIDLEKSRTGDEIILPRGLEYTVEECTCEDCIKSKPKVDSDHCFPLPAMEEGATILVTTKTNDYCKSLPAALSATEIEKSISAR

Results are given in words; binding and its absence hold for the method and conditions named. Some binding calls cover weakened binding; strength is not graded here.

B1: mouse monoclonal anti-human BCMA antibody clone 4C8A (antibody, mouse IgG1, V domains shown)
VH: VQLQQSGPELVKPGASVKMSCKASGYTFTSYVMHWVKQKPGQGLEWIGYIIPYNDATKYNEKFKGKATLTSDKSSSTAYMELSSLTSEDSAVYYCARYNYDGYFDVWGAGTTVTVSS
VL: DIVMTQSPATLSVTPGDRVSLSCRASQSISDYLHWYQQKSHESPRLLIKYASQSISGIPSRFSGSGSGSDFTLSINSVEPEDVGVYYCQNGHSFPPTFGGGTKLEIK
notes: also called BCMA mAb 4C8A; BCMA 4C8A antibody
Turning to B1, the binding entry was “binds”.

The record behind these values is patent publication US20210015870A1 (PROMAB BIOTECHNOLOGIES, published 2021).
